According to article PMC4312039:
These are yes or no findings as the source states them, for the method shown. In cells and extracts the contact can be indirect. Some entries that bind do so weakly or less than the wild type. Where a sequence is shown, tags or fusion partners need not be part of it.

T1: Shrub-GFP (GFP-tagged Shrub, from pAc-Shrub-GFP) (Drosophila melanogaster) (UniProt Q8T0Q4)
T1 sequence: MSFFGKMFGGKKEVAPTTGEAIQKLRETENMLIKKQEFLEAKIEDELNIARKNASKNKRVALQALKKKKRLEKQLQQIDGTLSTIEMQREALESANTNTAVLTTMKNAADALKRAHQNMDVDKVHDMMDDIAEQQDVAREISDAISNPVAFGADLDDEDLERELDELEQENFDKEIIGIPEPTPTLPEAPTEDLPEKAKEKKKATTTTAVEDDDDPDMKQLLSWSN

T2: GFP-ALIX-F198D (Drosophila melanogaster) (UniProt Q9VB05)
T2 sequence: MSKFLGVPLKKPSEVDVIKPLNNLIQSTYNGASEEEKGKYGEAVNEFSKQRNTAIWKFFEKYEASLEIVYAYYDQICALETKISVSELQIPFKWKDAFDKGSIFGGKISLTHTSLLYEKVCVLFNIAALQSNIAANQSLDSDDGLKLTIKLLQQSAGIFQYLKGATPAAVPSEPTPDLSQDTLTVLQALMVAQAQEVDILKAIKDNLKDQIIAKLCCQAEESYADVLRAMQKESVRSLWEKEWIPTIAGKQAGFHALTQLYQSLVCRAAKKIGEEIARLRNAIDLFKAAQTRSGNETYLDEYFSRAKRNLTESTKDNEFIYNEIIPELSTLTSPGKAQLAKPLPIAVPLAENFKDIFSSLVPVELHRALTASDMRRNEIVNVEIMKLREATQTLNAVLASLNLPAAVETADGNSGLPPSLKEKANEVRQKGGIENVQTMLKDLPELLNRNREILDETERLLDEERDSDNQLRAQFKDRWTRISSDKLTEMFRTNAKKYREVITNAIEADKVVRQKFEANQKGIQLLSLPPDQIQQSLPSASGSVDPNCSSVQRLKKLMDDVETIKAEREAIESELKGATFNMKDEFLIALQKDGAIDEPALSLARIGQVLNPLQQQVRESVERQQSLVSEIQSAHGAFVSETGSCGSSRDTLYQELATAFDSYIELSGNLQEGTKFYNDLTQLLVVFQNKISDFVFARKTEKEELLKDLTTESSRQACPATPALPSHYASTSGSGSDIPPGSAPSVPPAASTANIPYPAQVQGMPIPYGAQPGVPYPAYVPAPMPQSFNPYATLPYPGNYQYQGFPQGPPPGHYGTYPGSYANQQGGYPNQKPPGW

T3: wild type GFP-ALIX (GFP-ALIX-wt, from pAGW-ALIX-wt) (Drosophila melanogaster) (UniProt Q9VB05)
T3 sequence: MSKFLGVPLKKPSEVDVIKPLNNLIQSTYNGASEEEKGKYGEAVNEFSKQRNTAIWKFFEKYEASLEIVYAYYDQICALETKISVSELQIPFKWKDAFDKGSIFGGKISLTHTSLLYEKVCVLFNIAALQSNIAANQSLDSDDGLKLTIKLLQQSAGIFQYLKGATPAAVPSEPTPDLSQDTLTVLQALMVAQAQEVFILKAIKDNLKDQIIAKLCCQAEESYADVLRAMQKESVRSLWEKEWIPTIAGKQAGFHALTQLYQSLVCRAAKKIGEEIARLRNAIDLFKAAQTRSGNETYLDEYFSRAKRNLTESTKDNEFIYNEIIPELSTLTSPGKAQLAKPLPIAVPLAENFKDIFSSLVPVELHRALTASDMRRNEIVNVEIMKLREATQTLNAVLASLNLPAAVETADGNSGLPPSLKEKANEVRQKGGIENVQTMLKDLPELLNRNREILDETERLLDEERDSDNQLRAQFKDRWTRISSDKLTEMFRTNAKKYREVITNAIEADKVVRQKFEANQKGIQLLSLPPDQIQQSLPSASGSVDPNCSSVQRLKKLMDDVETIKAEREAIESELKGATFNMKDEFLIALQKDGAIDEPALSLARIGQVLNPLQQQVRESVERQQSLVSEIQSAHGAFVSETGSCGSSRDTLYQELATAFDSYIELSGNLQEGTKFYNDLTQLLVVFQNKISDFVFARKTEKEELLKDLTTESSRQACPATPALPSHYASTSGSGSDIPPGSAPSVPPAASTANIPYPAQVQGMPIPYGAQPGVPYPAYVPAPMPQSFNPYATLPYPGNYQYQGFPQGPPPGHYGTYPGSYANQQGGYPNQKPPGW

T4: GFP-ALIX-I211D (Drosophila melanogaster) (UniProt Q9VB05)
T4 sequence: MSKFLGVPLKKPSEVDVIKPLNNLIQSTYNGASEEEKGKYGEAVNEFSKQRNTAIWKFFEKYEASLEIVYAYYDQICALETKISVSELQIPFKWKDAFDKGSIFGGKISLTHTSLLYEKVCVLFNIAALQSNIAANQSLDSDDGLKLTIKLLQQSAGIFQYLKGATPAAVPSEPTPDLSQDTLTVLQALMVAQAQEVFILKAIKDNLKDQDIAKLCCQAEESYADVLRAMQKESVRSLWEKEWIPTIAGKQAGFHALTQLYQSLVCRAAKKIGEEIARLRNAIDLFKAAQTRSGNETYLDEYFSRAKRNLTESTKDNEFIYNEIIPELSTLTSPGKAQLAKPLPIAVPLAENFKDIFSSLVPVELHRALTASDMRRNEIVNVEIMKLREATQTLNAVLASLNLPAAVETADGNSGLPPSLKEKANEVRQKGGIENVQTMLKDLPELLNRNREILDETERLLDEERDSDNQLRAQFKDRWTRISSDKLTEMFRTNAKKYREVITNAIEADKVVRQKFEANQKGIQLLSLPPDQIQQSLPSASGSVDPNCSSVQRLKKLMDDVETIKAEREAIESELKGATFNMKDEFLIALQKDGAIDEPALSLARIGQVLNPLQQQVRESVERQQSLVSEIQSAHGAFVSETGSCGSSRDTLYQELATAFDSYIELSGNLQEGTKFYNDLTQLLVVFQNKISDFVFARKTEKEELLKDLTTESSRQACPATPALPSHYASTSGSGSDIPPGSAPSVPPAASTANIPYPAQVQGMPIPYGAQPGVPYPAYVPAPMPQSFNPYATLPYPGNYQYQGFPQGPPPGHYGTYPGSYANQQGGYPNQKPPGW


Assays:
Assay in all cases: co-IP; GFP trap beads on lysates of Dmel cells transiently transfected for 48 h, mitotic cells enriched with MG132 (25 µM, 5 h); lysis in 10 mM Tris-HCl pH 7.5, 150 mM NaCl, 0.5 mM EDTA, 0.5% NP-40; beads 1 hour at 4°C; the endogenous partner detected by immunoblotting
[1] = target: T1, Shrub-GFP (GFP-tagged Shrub, from pAc-Shrub-GFP) (Drosophila melanogaster)
[2] = target: T2, GFP-ALIX-F198D (Drosophila melanogaster)
[3] = target: T3, wild type GFP-ALIX (GFP-ALIX-wt, from pAGW-ALIX-wt) (Drosophila melanogaster)
[4] = target: T4, GFP-ALIX-I211D (Drosophila melanogaster)

Binder | binding [1] | binding [2] | binding [3] | binding [4]
ALIX (ALG-2-interacting protein X), endogenous Drosophila protein (protein, UniProt Q9VB05 1-836) MSKFLGVPLKKPSEVDVIKPLNNLIQSTYNGASEEEKGKYGEAVNEFSKQRNTAIWKFFEKYEASLEIVYAYYDQICALETKISVSELQIPFKWKDAFDKGSIFGGKISLTHTSLLYEKVCVLFNIAALQSNIAANQSLDSDDGLKLTIKLLQQSAGIFQYLKGATPAAVPSEPTPDLSQDTLTVLQALMVAQAQEVFILKAIKDNLKDQIIAKLCCQAEESYADVLRAMQKESVRSLWEKEWIPTIAGKQAGFHALTQLYQSLVCRAAKKIGEEIARLRNAIDLFKAAQTRSGNETYLDEYFSRAKRNLTESTKDNEFIYNEIIPELSTLTSPGKAQLAKPLPIAVPLAENFKDIFSSLVPVELHRALTASDMRRNEIVNVEIMKLREATQTLNAVLASLNLPAAVETADGNSGLPPSLKEKANEVRQKGGIENVQTMLKDLPELLNRNREILDETERLLDEERDSDNQLRAQFKDRWTRISSDKLTEMFRTNAKKYREVITNAIEADKVVRQKFEANQKGIQLLSLPPDQIQQSLPSASGSVDPNCSSVQRLKKLMDDVETIKAEREAIESELKGATFNMKDEFLIALQKDGAIDEPALSLARIGQVLNPLQQQVRESVERQQSLVSEIQSAHGAFVSETGSCGSSRDTLYQELATAFDSYIELSGNLQEGTKFYNDLTQLLVVFQNKISDFVFARKTEKEELLKDLTTESSRQACPATPALPSHYASTSGSGSDIPPGSAPSVPPAASTANIPYPAQVQGMPIPYGAQPGVPYPAYVPAPMPQSFNPYATLPYPGNYQYQGFPQGPPPGHYGTYPGSYANQQGGYPNQKPPGW | binds | – | – | –
Shrub, endogenous Drosophila protein (protein, UniProt Q8T0Q4 1-226) MSFFGKMFGGKKEVAPTTGEAIQKLRETENMLIKKQEFLEAKIEDELNIARKNASKNKRVALQALKKKKRLEKQLQQIDGTLSTIEMQREALESANTNTAVLTTMKNAADALKRAHQNMDVDKVHDMMDDIAEQQDVAREISDAISNPVAFGADLDDEDLERELDELEQENFDKEIIGIPEPTPTLPEAPTEDLPEKAKEKKKATTTTAVEDDDDPDMKQLLSWSN | – | binds weakly | binds | binds weakly
